In patent US20240293588A1 (Starpharma Pty Ltd, priority 2020, published 2024):

Experiment: peptide synthesis
Conditions: late stage modification step

Substance: [[(ε-NHCO-PEG1100)8(α-NH2·HCl)8][Lys]8[Lys]4[Lys]2[Lys]-CONH—CH2—CH2—S-]2MAL-PEG3-NHCO-PEG24-CONH-PEG4-(PhTzMe)
- step yield: 95%
